# Several values for one entry are separate records, joined by “and”; a condition that tells them apart may be missing. Equal values may be shown once. Out of some 390,000 compounds screened, about 760 (0.19%) were called active. This list was built around the results that the source calls inconclusive (neither active nor inactive); the mix of calls is not that of the screen. The call rests on the fitted dose curve; in most records, active means well fitted inhibition curve with a large enough effect; inconclusive means small, poorly fitted or top-dose-only effect; inactive means flat fitted curve, though single readings scatter. A potency beside an inconclusive call is a rough fit, not a confirmed value.
# Assay: qHTS for Inhibitors of Vif-A3F Interactions: qHTS; further: nearly all actives have a fitted effect of over 65% in size
# Settings: HeLa A3F-eYFP + Vif (tagged APOBEC3F with the HIV-1 protein that degrades it), YFP fluorescence increase; series mostly up to 46.1 µM
# Procedure, shortened: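 HeLa cells stably expressing Vif plus C-terminally eYFP-tagged A3F were seeded, incubated overnight at 37 deg C, dosed with compound, incubated overnight again at 37 deg C. Yellow fluorescence (Ex 488/Em 500-530) reported blocked Vif-mediated A3F-eYFP degradation.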
# Potency means the concentration at half of the fitted maximal effect.
row,Compound,Potency
1,CCOc1ccccc1NC(=O)Cn1nnc(C(=O)Nc2ccc(C)c(C)c2)c1N,inactive
2,Cc1ccc(C2=CC(c3ccc(N(C)C)cc3)n3nnnc3N2)cc1 (stereo unspecified),"inconclusive: 25.1 µM [inhibitor, single point]"
3,N=c1c(-c2nc3ccccc3[nH]2)cc(C(=O)c2cccs2)nn1-c1ccccc1,inactive
4,CCN1/C(=C\c2ccc3cc(C)ccc3[n+]2CC)Sc2cc(C)c(C)cc21,"inconclusive: 5.01 µM [inhibitor, partial curve, poor fit]"
5,CC(C)Oc1ccc(C(=O)Nc2ccc(Cl)c(S(=O)(=O)Nc3ccc(Cl)cc3)c2)cc1,"inconclusive: 35.5 µM [inhibitor, single point]"
6,O=C(Oc1ccccc1)c1ccccc1OS(=O)(=O)c1ccccc1,"inconclusive: 6.31 µM [inhibitor, single point]"
7,CCOC(=O)C1CCN(C(=O)c2cc3c(OC)c(OC)c(OC)cc3[nH]2)CC1,"inconclusive: 3.55 µM [inhibitor, single point]"
8,CCc1cc2c(N=Nc3c(O)[nH]c4ccccc34)ncnc2s1,"inconclusive: 35.5 µM [inhibitor, single point]"
9,COc1cccc(-c2ccc3c(N)c(C(=O)Nc4ccc(C)c(F)c4)sc3n2)c1,inactive
10,Cc1cc(/C=N/NC(N)=S)c(C)n1-c1ccc(Cl)c(Cl)c1,"inconclusive: 3.55 µM [inhibitor, single point]"
11,COc1ccc(S(=O)(=O)Oc2cccc(/C=N/N=C3/NC(=O)C(CC(=O)O)S3)c2)cc1 (stereo unspecified),"inconclusive: 10 µM [inhibitor, partial curve, poor fit]"
12,CCC/C=C/c1ccc(CN2C(CC(C)C)C(=O)N(Cc3cn(Cc4ccco4)nn3)CCS2(=O)=O)cc1 (stereo unspecified),"inconclusive: 17.8 µM [inhibitor, single point]"
13,COC(=O)C1=COC(C)C2CN3CCc4c([nH]c5cc(OC)c(OC)cc45)C3CC12 (stereo unspecified),active: 8.91 µM
14,CC(C)N(C(=O)[C@H]1C[C@H](CC(=O)NCc2cccc(C(F)(F)F)c2)C(=O)N2CCc3c([nH]c4ccc(Cl)cc34)[C@]12C)C(C)C,"inconclusive: 35.5 µM [inhibitor, single point]"
15,CCOC(=O)C1=C(O)/C(=C/c2ccc(CNC(=O)C(=O)Nc3ccc(C)cc3)o2)N=C1C,"inconclusive: 20 µM [inhibitor, single point]"
16,O=C(Nc1nc(-c2ccccn2)cs1)c1cc(S(=O)(=O)N2CCOCC2)ccc1F,inactive
17,CCN(CC)CCn1c(SCC(=O)Nc2cccc(OC)c2)nc2c(sc3ccccc32)c1=O,"inconclusive: 25.1 µM [inhibitor, single point]"
18,O=C(Cc1ccc(Cl)cc1Cl)NC1CCCCCC1,"inconclusive: 3.16 µM [inhibitor, partial curve, poor fit]"
19,C=CCc1ccccc1OCC(O)CN1CCN(CCN2C(=O)c3cccc4cccc(c34)C2=O)CC1 (stereo unspecified),inactive
20,Cc1cc(C)c(C)c(OCCOCCN2CCN(C)CC2)c1,inactive
21,COc1ccc(Cl)cc1NC(=S)Nc1cccc(C)c1,"inconclusive: 35.5 µM [inhibitor, single point]"
22,Cc1ccc(C)c(C(=O)Nc2cc(C)nn2-c2nc(C)cc(C)n2)c1,"inconclusive: 10 µM [inhibitor, partial curve, poor fit]"

row,Compound,Potency
1,COc1ccc(Cc2nc3c4c(ncn3n2)Oc2ccc3ccccc3c2C4c2ccc(OC)c(OC)c2)cc1 (stereo unspecified),inactive
2,Cc1cccc(CNC(=O)c2ccc(Cn3c(=O)c4cccn4c4cccnc43)cc2)c1,inactive
3,COc1ccc(C(=O)C(C)OC(=O)CCN2C(=O)C3CC=CCC3C2=O)cc1 (stereo unspecified),"inconclusive: 3.16 µM [inhibitor, single point]"
4,CCc1ccc(NC(=O)CN(CC(=O)Nc2ccc(CC)cc2)CC(C)O)cc1 (stereo unspecified),inactive
5,COc1ccccc1NC(=O)CC1Nc2ccccc2NC1=O (stereo unspecified),inactive
6,CCC(=C/c1sc2ccc3ccccc3c2[n+]1C)/C=C1\Sc2ccc3ccccc3c2N1C,"inconclusive: 2.51 µM [inhibitor, full curve, poor fit]"
7,O=C(Nc1ccc2nn(-c3ccccc3)nc2c1)c1ccc(-c2cccc(Cl)c2)o1,"inconclusive: 11.2 µM [inhibitor, single point]"
8,CC(NC(=O)c1c(O)c2ccccc2n(C)c1=O)c1ccccc1 (stereo unspecified),"inconclusive: 8.91 µM [inhibitor, partial curve, poor fit]"
9,CC(C)Cn1c(/C=C/c2ccc(F)cc2)nc2ccccc21,"inconclusive: 15.8 µM [inhibitor, single point]"
10,CN(C)c1ccc([C@@H]2[C@@H]([N+](=O)[O-])[C@H]3C=Cc4ccccc4N3[C@H]2C(=O)c2ccc(Cl)cc2)cc1,"inconclusive: 17.8 µM [inhibitor, partial curve, poor fit]"
11,FC(F)Oc1ccc(NC(=S)NC2CCCCCCC2)cc1,"inconclusive: 35.5 µM [inhibitor, single point]"
12,Fc1ccccc1-n1[nH]nnc1=S,inactive
13,COc1ccc(NC(C)=O)cc1S(=O)(=O)NC(Cc1ccccc1)C(=O)NCc1ccccc1C (stereo unspecified),"inconclusive: 3.98 µM [inhibitor, partial curve, poor fit]"
14,CCCCN1C(=S)NC[C@@H]1Cc1ccccc1,"inconclusive: 35.5 µM [inhibitor, single point]"
15,COc1ccc(C)cc1NC(=O)C1CCCN(S(=O)(=O)c2cccc3nonc23)C1 (stereo unspecified),"inconclusive: 35.5 µM [inhibitor, single point]"
16,Cc1ccccc1Nc1nc(-c2sc(NC(=O)c3ccco3)nc2C)cs1,inactive
17,OCC1(CCc2ccccc2)CCN(Cc2ccc(OC(F)F)cc2)CC1,inactive
18,Cc1ccc(-c2nc(SCc3ccc(Br)cc3)n3[nH]c(=O)cc3n2)cc1,"inconclusive: 7.08 µM [inhibitor, partial curve, poor fit]"
19,CC(C)(C)C(=O)Nc1c(C(=O)N2CCN(c3ccc(F)cc3)CC2)oc2ccccc12,inactive
20,Cc1ccc2nc(N3CCN(c4cccc(C)c4C)CC3)c3nnnn3c2c1,"inconclusive: 28.2 µM [inhibitor, single point] and inconclusive: 15.8 µM [inhibitor, partial curve, poor fit]"
21,O=C(CSc1ccccc1)Nc1ccc(S(=O)(=O)Nc2ncccn2)cc1,"inconclusive: 22.4 µM [inhibitor, single point]"
22,COc1ccc(-n2nnc3c(SCC(=O)Nc4ccccc4F)ncnc32)cc1,inactive

row,Compound,Potency
1,Cc1cc(Cl)ccc1-n1c(-c2cccnc2)n[nH]c1=S,"inconclusive: 3.16 µM [inhibitor, single point]"
2,CNC(=O)c1sc(N2N=C3/C(=C/c4ccccc4)CCCC3C2c2ccccc2)nc1C (stereo unspecified),"inconclusive: 35.5 µM [inhibitor, single point]"
3,COc1ccc(-n2nc3c(N4CCC(C(=O)NCC(C)c5ccccc5)CC4)nnc(C)c3c2C)cc1 (stereo unspecified),"inconclusive: 25.1 µM [inhibitor, single point]"
4,COc1ccc(Cl)cc1N1CC(C(=O)Nc2nccs2)CC1=O (stereo unspecified),"inconclusive: 3.98 µM [inhibitor, single point]"
5,Cc1ccc(-c2csc(NC(=O)CN3CC(C)OC(C)C3)n2)cc1 (stereo unspecified),inactive
6,Cc1ccc2oc(=O)c3cnn(CC(=O)N(CCCN4CCOCC4)Cc4ccco4)c3c2c1,"inconclusive: 35.5 µM [inhibitor, single point]"
7,C=CCN=C1S/C(=C\c2ccc(N(C)C)cc2)C(=O)N1CC=C,"inconclusive: 25.1 µM [inhibitor, single point]"
8,C=CCN(CC=C)C(=S)NC(=O)c1ccc(OC)cc1,"inconclusive: 3.16 µM [inhibitor, partial curve, poor fit]"
9,Cc1cc(C(=O)Nc2nc3ccc(S(C)(=O)=O)cc3s2)c(C)o1,"inconclusive: 28.2 µM [inhibitor, single point]"
10,C=CCn1c(=NC(=O)C2COc3ccccc3O2)sc2cc(S(N)(=O)=O)ccc21 (stereo unspecified),"inconclusive: 1.26 µM [inhibitor, partial curve, poor fit]"
11,Nc1c(C(=O)Nc2ccc(Br)cc2)sc2nc(-c3ccco3)ccc12,"inconclusive: 35.5 µM [inhibitor, single point]"
12,Cc1cc(Oc2ccc(-c3nnc(-c4ccccc4)o3)cc2[N+](=O)[O-])ccc1Cl,"inconclusive: 6.31 µM [inhibitor, single point]"
13,CC(=O)c1ccc(NC(=O)C2CCC(CNS(=O)(=O)c3ccc4c(c3)CCCC(=O)N4)CC2)cc1 (stereo unspecified),inactive
14,CC(C)n1c(=S)[nH]c2ccccc21,inactive
15,Cc1ccc(-c2nnc(NC(=O)c3ccco3)o2)c(C)c1,"inconclusive: 22.4 µM [inhibitor, partial curve, poor fit]"
16,Fc1ccc(CNc2nc3ccc(Cl)cc3n3nnnc23)cc1,active: 7.94 µM
17,Cc1ccc(C)c(/C=C/C(=O)c2ccccc(=O)c2O)c1,"inconclusive: 5.62 µM [inhibitor, single point]"
18,COC(=O)/C(=C1/Oc2cc(C)oc(=O)c2S1)C(F)(F)F,"inconclusive: 35.5 µM [inhibitor, single point]"
19,O=S(=O)(c1cccc(Cl)c1)c1nnn2c1nc(NC1CCCCCC1)c1sccc12,inactive
20,NNC(=O)c1oc2nc(-c3ccccc3)cc(-c3ccco3)c2c1N,active: 11.2 µM
21,CCSc1ncc(Cl)c(C(=O)N2CCN(c3ccc(OC)cc3)CC2)n1,inactive
22,CCNC(=S)Nc1ccc(Cc2nc3ccccc3[nH]2)cc1,"inconclusive: 3.16 µM [inhibitor, single point]"

# Structural class, the compounds so far with a Cl atom
row,Compound,Potency
5,CC(C)Oc1ccc(C(=O)Nc2ccc(Cl)c(S(=O)(=O)Nc3ccc(Cl)cc3)c2)cc1,"inconclusive: 35.5 µM [inhibitor, single point]"
10,Cc1cc(/C=N/NC(N)=S)c(C)n1-c1ccc(Cl)c(Cl)c1,"inconclusive: 3.55 µM [inhibitor, single point]"
14,CC(C)N(C(=O)[C@H]1C[C@H](CC(=O)NCc2cccc(C(F)(F)F)c2)C(=O)N2CCc3c([nH]c4ccc(Cl)cc34)[C@]12C)C(C)C,"inconclusive: 35.5 µM [inhibitor, single point]"
18,O=C(Cc1ccc(Cl)cc1Cl)NC1CCCCCC1,"inconclusive: 3.16 µM [inhibitor, partial curve, poor fit]"
21,COc1ccc(Cl)cc1NC(=S)Nc1cccc(C)c1,"inconclusive: 35.5 µM [inhibitor, single point]"
7,O=C(Nc1ccc2nn(-c3ccccc3)nc2c1)c1ccc(-c2cccc(Cl)c2)o1,"inconclusive: 11.2 µM [inhibitor, single point]"
10,CN(C)c1ccc([C@@H]2[C@@H]([N+](=O)[O-])[C@H]3C=Cc4ccccc4N3[C@H]2C(=O)c2ccc(Cl)cc2)cc1,"inconclusive: 17.8 µM [inhibitor, partial curve, poor fit]"
1,Cc1cc(Cl)ccc1-n1c(-c2cccnc2)n[nH]c1=S,"inconclusive: 3.16 µM [inhibitor, single point]"
4,COc1ccc(Cl)cc1N1CC(C(=O)Nc2nccs2)CC1=O (stereo unspecified),"inconclusive: 3.98 µM [inhibitor, single point]"
12,Cc1cc(Oc2ccc(-c3nnc(-c4ccccc4)o3)cc2[N+](=O)[O-])ccc1Cl,"inconclusive: 6.31 µM [inhibitor, single point]"
16,Fc1ccc(CNc2nc3ccc(Cl)cc3n3nnnc23)cc1,active: 7.94 µM
19,O=S(=O)(c1cccc(Cl)c1)c1nnn2c1nc(NC1CCCCCC1)c1sccc12,inactive
21,CCSc1ncc(Cl)c(C(=O)N2CCN(c3ccc(OC)cc3)CC2)n1,inactive

# Pulled by structure from the list above (2):
row,Compound,Potency
6,Cc1ccc2oc(=O)c3cnn(CC(=O)N(CCCN4CCOCC4)Cc4ccco4)c3c2c1,"inconclusive: 35.5 µM [inhibitor, single point]"
21,CCSc1ncc(Cl)c(C(=O)N2CCN(c3ccc(OC)cc3)CC2)n1,inactive

# Reference: PubChem BioAssay AID602313 (National Center for Advancing Translational Sciences (NCATS), 2012)
